# Measured values: US6610675B1 (priority 1980, dated 2003)
# Test: Therapeutic index from ED50 (cotton pellet granuloma) and TED40 (thymus inhibition)
# Type: in vivo, rat
# Conditions: ratio of the relative potency for the ED50 to the relative potency for the TED40; hydrocortisone 17-butyrate = 1
row,Compound,Therapeutic Index
1,"CCCCC(=O)O[C@]1(C(=O)CO)[C@@H](C)C[C@H]2[C@@H]3CCC4=CC(=O)C=C[C@]4(C)[C@@]3(F)[C@@H](O)C[C@@]21C [Betamethasone 17-valerate, reference compound]",1
2,"COC(=O)O[C@]1(C(=O)OCCl)[C@H](C)C[C@H]2[C@@H]3CCC4=CC(=O)C=C[C@]4(C)[C@@]3(F)[C@@H](O)C[C@@]21C [chloromethyl 9α-fluoro-11β-hydroxy-17α-methoxycarbonyloxy-16α-methylandrosta-1,4-dien-3-one-17β-carboxylate]",7270
3,"CC(C)OC(=O)O[C@]1(C(=O)OCCl)CC[C@H]2[C@@H]3CCC4=CC(=O)C=C[C@]4(C)[C@H]3[C@@H](O)C[C@@]21C [chloromethyl 11β-hydroxy-17α-isopropoxycarbonyloxy-androsta-1,4-dien-3-one-17β-carboxylate]",48
4,CC(C)OC(=O)O[C@]1(C(=O)OCCl)CC[C@H]2[C@@H]3CCC4=CC(=O)CC[C@]4(C)[C@H]3[C@@H](O)C[C@@]21C [chloromethyl 11β-hydroxy-17α-isopropoxycarbonyloxyandrost-4-en-3-one-17β-carboxylate],24
5,"CCOC(=O)O[C@]1(C(=O)OCCl)[C@H](C)C[C@H]2[C@@H]3CCC4=CC(=O)C=C[C@]4(C)[C@@]3(F)[C@@H](O)C[C@@]21C [chloromethyl 17α-ethoxycarbonyloxy-9α-fluoro-11β-hydroxy-16α-methylandrosta-1,4-dien-3-one-17β-carboxylate]",18000
